PubChem BioAssay AID652243, Drosophila RNAi Screening Center – 2013
Aim: 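Knock-downs that decrease or increase androgen receptor reporter signal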 (primary screen). Cell system: Drosophila S2R+ cells. Reagent: long dsRNA against Drosophila genes. Timing: 72 h (48 h, then 24 h hormone). Treatment: synthetic androgen R1881 at 10 nM for 24 h. Read-out: 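Per-well raw luminescence of the androgen-driven firefly reporter and of the Renilla control, two replicates each, without normalisation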. Scale: firefly reporter light: higher = more light from androgen-responsive reporter; Renilla control light: higher = more constitutive control signal (cell number, transfection). Call rule: 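Hit when the log firefly-to-Renilla ratio dropped or increased by a fixed fold versus the mean of GFP or LacZ controls across duplicate plates; lowering cut given as 1.5 and as 3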. Calls: active = hit: reporter lowered or raised; inactive = no hit.
The deposit covers about 24,000 reagents; shown is an unselected part of those with a known target gene and a result. Of all reagents, 246 (1%) are marked active. 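Plates not normalised; calls are printed but the firefly/Renilla ratio behind them is not deposited; fold cut for lowering reported inconsistently.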 Raw values vary from plate to plate and are shown uncorrected. A plus sign joins genes that one reagent is predicted to hit. Reagent sequences are not shown. The record does not give: the amount of reagent.

no.	Target gene	amplicon	firefly reporter light, replicate 1	firefly reporter light, replicate 2	Renilla control light, replicate 1	Renilla control light, replicate 2	Call
1	wkd (GeneID 41390)	DRSC15777	2.08e5	1.68e5	2.50e6	2.01e6	inactive
2	CG12374 (GeneID 36410)	DRSC06143	2.88e5	2.27e5	1.96e6	1.83e6	inactive
3	Blos1 (GeneID 246439)	DRSC05970	42093	67433	1.13e6	1.13e6	inactive
4	Cpr30B (GeneID 34270)	DRSC02728	3.33e5	3.51e5	2.27e6	1.92e6	inactive
5	Cpr30B (GeneID 34270)	DRSC25204	6.99e5	8.47e5	1.06e6	1.22e6	inactive
6	CG32631 (GeneID 32311)	DRSC19768	96248	1.08e5	7.49e5	7.28e5	inactive
7	CG32631 (GeneID 32311)	DRSC28596	3.69e5	3.70e5	1.32e6	1.31e6	inactive
8	CG7888 (GeneID 39232)	DRSC10926	7.52e5	9.70e5	1.86e6	2.26e6	inactive
9	Hmgs (GeneID 44154)	DRSC06866	1.11e5	1.04e5	1.45e6	1.45e6	inactive
10	Hmgs (GeneID 44154)	DRSC28746	2.89e5	2.90e5	9.68e5	8.53e5	inactive
11	Prosbeta2 (GeneID 39628)	DRSC11257	5.87e5	8.80e5	1.18e6	1.72e6	inactive
12	kst (GeneID 38418)	DRSC08719	9.66e5	9.68e5	1.77e6	1.86e6	inactive
13	CG8565 (GeneID 32538)	DRSC20112	4.96e5	4.19e5	3.33e6	2.72e6	inactive
14	CG8565 (GeneID 32538)	DRSC36818					inactive
15	CG8565 (GeneID 32538)	DRSC36819					inactive
16	CG33125 (GeneID 318892)	DRSC00145	1.88e5	1.35e5	5.94e5	3.70e5	inactive
17	CG33125 (GeneID 318892)	DRSC28619	6.46e5	6.54e5	1.56e6	1.54e6	inactive
18	CG3009 (GeneID 31402)	DRSC18263	78890	51239	6.24e5	5.94e5	inactive
19	CG3009 (GeneID 31402)	DRSC28666	4.42e5	4.99e5	1.28e6	1.48e6	inactive
20	Coq3 (GeneID 35383)	DRSC03168	1.43e6	1.29e6	3.00e6	2.97e6	inactive
21	Jheh3 (GeneID 37182)	DRSC06533	1.16e6	8.54e5	9.08e5	7.88e5	inactive
22	Jheh3 (GeneID 37182)	DRSC29140	5.85e5	5.02e5	1.50e6	1.05e6	inactive
23	CG13310 (GeneID 39007)	DRSC09981	1.16e5	1.84e5	1.77e6	1.52e6	inactive
24	CG13310 (GeneID 39007)	DRSC28258	3.66e5	6.00e5	1.11e6	1.78e6	inactive
25	betaGlu (GeneID 43746)	DRSC15419	89613	73734	5.20e5	4.30e5	inactive
26	betaGlu (GeneID 43746)	DRSC24889	6.40e5	7.36e5	4.85e5	8.28e5	inactive
27	betaGlu (GeneID 43746)	DRSC39080	6.96e5	4.24e5	1.74e6	1.70e6	inactive
28	oxt (GeneID 38288)	DRSC08522	7.37e5	1.02e6	1.45e6	1.61e6	inactive
29	Jon66Cii (GeneID 38953)	DRSC10778	1.76e5	1.44e5	1.69e6	1.68e6	inactive
30	Jon66Cii (GeneID 38953)	DRSC28611	6.80e5	6.22e5	1.48e6	1.86e6	inactive
31	beg (GeneID 39910)	DRSC10923	26956	40022	6.44e5	5.09e5	inactive
32	CG15822 (GeneID 38273)	DRSC08482	62639	56556	1.10e6	9.67e5	inactive
33	CG15822 (GeneID 38273)	DRSC08483	32969	49635	5.80e5	8.02e5	inactive
34	CR43670 + grp + CR43671 + 1 more	DRSC03541	7.20e5	8.59e5	1.06e6	1.37e6	inactive
35	CG3502 (GeneID 37695)	DRSC04381	8.15e5	6.90e5	1.36e6	1.04e6	inactive
36	CG14780 (GeneID 31102)	DRSC18566	2.99e5	2.97e5	3.62e6	3.30e6	inactive
37	shn (GeneID 36171)	DRSC05266	1.14e5	1.21e5	2.31e5	2.97e5	inactive
38	shn (GeneID 36171)	DRSC07681	7.92e5	5.88e5	1.98e6	1.97e6	inactive
39	CG14795 (GeneID 31109)	DRSC18513	3.21e5	3.45e5	2.67e6	2.37e6	inactive
40	CG14795 (GeneID 31109)	DRSC26338	3.99e5	4.89e5	4.31e5	9.59e5	inactive

A few values from above:
CG32631 (GeneID 32311) [DRSC28596], firefly reporter light, replicate 2 → 3.70e5
Under “firefly reporter light, replicate 2”, oxt (GeneID 38288) [DRSC08522] has 1.02e6
Result for CG13310 (GeneID 39007) [DRSC09981] in “Call”: inactive
Under “firefly reporter light, replicate 2”, CG12374 (GeneID 36410) [DRSC06143] is entered as 2.27e5
Under “firefly reporter light, replicate 2”, beg (GeneID 39910) [DRSC10923] reads 40022
Under “Call”, CG8565 (GeneID 32538) [DRSC36818] shows inactive
